Reference: the supplement of paper PMC10849652
This is one part of the list.

Amino acid sequences for entries named in this document (tags omitted). A change or cut given only in a name is not applied to a line headed by its entry.
UniProt Q9Y5K8, whole entry, looked up: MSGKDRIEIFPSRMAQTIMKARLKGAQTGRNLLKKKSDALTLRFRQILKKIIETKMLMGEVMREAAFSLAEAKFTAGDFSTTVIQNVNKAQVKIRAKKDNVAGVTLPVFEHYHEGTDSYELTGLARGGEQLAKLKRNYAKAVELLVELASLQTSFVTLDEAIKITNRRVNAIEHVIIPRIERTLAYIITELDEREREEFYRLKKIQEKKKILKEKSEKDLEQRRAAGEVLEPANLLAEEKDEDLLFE
UniProt Q8NHH9: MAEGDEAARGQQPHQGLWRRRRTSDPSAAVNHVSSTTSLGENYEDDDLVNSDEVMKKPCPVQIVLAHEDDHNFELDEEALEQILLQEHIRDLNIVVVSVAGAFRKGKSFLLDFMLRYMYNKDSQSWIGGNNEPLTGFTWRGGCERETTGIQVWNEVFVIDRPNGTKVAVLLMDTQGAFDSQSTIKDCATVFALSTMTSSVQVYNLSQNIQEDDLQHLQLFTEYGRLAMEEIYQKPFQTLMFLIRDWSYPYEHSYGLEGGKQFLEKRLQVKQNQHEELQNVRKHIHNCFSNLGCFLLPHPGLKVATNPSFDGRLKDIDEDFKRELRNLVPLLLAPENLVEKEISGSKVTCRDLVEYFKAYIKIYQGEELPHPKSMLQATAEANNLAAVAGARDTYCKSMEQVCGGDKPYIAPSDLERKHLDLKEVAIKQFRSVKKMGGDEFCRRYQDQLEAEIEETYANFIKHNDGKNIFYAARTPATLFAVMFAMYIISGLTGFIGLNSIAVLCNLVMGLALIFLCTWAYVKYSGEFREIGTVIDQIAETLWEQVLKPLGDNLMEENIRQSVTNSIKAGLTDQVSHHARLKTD
UniProt Q9Y294, whole entry, looked up: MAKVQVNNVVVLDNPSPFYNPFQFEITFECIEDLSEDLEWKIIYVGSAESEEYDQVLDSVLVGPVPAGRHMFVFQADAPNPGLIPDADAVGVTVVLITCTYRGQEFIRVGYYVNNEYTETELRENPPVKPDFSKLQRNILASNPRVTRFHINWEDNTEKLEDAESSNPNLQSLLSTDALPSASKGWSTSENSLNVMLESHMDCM
UniProt Q7Z3C6: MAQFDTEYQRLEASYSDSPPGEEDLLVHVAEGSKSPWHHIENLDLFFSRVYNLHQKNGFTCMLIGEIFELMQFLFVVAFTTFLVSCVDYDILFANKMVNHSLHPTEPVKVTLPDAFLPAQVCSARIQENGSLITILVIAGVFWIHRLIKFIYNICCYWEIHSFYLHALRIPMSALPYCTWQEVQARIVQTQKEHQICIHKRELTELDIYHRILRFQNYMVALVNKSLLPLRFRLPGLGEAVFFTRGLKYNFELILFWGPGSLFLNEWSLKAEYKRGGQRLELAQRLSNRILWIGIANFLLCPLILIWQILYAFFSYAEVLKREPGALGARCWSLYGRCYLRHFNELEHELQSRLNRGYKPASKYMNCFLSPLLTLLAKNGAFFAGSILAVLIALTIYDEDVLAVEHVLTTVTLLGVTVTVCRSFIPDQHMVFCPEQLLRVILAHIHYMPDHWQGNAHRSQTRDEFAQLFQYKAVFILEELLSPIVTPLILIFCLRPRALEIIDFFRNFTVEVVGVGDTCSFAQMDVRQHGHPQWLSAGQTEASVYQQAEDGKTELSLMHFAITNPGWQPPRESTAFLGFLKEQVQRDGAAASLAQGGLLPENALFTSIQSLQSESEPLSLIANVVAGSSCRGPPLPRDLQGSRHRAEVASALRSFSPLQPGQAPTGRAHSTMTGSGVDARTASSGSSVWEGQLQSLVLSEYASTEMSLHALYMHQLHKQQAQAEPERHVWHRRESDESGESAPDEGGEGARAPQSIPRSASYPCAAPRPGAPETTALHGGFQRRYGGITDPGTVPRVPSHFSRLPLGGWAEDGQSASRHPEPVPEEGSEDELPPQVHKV
UniProt O94817, whole entry, looked up: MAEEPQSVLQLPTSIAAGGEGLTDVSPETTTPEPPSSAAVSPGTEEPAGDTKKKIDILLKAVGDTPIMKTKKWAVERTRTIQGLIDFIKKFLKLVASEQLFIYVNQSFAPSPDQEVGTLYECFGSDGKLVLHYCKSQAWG
UniProt Q8N3C0, whole entry, looked up: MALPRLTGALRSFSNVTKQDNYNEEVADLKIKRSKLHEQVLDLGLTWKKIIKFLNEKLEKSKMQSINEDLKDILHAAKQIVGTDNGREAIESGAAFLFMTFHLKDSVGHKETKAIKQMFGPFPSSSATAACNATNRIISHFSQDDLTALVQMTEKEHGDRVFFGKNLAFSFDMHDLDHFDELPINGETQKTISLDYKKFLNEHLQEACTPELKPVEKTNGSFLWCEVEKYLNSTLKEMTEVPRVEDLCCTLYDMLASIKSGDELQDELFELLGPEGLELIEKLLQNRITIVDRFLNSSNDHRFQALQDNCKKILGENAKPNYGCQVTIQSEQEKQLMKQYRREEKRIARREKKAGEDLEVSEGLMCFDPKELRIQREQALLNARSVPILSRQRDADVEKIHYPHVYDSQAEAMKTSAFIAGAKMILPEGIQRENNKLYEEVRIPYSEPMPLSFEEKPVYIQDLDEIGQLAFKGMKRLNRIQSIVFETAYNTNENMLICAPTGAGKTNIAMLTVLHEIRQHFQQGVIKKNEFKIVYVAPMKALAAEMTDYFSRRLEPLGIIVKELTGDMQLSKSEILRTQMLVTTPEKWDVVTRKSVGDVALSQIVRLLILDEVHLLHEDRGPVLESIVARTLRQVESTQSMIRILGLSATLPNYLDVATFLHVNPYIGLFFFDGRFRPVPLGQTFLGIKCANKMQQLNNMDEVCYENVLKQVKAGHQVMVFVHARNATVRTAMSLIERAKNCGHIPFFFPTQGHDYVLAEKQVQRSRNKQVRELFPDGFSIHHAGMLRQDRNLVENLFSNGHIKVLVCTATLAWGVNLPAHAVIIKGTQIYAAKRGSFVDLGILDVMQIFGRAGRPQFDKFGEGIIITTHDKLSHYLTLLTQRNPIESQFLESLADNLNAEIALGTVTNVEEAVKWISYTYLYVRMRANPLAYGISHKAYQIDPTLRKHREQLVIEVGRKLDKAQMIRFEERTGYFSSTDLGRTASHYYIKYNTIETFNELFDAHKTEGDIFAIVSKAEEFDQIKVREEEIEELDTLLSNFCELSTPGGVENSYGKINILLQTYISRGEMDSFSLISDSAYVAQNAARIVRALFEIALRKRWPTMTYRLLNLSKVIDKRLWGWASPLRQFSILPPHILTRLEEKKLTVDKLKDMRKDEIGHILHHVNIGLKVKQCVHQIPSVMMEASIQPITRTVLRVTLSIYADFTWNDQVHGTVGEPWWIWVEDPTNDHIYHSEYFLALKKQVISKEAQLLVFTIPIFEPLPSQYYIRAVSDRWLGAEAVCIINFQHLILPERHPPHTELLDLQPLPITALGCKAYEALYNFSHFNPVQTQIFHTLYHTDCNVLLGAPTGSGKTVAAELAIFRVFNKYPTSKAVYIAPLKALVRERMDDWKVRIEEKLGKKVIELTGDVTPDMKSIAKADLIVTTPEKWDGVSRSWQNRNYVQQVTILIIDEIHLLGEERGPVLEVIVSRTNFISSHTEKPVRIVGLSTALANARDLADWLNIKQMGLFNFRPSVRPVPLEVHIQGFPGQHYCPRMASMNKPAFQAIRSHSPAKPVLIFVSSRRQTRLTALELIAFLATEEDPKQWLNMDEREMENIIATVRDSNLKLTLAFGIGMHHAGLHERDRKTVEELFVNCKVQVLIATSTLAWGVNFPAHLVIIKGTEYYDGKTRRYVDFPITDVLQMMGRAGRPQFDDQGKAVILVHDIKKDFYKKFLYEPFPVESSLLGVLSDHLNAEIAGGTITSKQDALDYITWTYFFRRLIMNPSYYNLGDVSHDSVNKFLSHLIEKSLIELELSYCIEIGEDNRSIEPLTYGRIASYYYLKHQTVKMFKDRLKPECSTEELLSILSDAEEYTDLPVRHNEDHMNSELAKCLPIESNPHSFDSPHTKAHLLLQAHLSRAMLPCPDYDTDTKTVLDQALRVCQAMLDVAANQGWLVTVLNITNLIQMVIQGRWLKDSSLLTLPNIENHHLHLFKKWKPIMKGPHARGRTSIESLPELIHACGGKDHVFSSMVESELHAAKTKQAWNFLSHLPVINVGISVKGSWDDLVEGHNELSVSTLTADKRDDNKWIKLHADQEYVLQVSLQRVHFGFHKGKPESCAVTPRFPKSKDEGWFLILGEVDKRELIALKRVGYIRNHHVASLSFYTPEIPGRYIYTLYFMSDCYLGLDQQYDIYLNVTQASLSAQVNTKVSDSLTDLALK
UniProt O15169, whole entry, looked up: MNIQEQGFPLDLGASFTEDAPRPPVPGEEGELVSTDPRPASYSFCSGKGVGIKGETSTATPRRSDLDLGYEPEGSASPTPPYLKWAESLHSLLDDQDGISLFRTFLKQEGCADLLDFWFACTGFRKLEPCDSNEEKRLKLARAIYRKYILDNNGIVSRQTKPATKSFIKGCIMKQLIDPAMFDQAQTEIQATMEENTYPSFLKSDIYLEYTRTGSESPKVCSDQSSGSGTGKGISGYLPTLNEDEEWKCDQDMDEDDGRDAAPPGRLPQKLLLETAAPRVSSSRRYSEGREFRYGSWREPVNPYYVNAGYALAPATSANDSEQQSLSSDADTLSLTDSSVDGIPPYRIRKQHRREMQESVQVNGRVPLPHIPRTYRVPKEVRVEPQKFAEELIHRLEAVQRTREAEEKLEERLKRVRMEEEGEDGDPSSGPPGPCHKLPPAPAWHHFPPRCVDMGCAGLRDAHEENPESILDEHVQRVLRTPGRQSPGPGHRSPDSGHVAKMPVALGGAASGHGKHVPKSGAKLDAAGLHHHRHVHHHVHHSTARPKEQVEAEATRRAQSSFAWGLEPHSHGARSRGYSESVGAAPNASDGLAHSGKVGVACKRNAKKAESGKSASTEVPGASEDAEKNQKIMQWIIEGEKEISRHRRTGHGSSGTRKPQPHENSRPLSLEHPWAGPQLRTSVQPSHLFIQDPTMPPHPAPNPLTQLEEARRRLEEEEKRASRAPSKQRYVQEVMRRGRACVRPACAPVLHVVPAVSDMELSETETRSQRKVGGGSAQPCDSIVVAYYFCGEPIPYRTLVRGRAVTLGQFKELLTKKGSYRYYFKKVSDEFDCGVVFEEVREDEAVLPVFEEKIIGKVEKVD
UniProt Q6Y288: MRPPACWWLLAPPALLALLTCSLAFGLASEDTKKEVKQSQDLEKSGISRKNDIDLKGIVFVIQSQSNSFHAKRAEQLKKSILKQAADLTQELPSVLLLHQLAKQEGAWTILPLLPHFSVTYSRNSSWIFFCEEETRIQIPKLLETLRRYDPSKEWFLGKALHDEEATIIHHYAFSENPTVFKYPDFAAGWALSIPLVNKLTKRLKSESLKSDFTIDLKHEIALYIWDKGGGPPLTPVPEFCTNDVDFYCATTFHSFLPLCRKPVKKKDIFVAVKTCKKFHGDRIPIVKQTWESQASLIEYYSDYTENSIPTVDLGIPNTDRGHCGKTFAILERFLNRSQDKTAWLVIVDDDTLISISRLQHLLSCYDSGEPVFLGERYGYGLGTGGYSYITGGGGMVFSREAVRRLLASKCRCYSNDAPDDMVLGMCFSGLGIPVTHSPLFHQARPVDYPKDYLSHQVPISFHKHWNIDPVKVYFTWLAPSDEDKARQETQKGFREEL
UniProt P06576, whole entry, looked up: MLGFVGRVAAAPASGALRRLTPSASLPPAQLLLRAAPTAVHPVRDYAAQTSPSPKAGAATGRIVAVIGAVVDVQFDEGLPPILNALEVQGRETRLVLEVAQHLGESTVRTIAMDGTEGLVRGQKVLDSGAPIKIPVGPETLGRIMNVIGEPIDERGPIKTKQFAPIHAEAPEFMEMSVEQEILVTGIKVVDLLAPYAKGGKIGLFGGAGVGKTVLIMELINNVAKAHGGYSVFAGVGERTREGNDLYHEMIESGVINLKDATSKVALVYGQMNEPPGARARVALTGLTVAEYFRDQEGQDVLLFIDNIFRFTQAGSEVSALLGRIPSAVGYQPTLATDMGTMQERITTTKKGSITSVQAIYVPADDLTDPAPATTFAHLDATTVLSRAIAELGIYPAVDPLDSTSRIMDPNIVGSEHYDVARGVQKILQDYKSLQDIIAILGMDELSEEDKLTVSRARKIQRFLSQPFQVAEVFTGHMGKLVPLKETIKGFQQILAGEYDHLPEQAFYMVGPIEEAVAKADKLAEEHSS
UniProt Q96DT6: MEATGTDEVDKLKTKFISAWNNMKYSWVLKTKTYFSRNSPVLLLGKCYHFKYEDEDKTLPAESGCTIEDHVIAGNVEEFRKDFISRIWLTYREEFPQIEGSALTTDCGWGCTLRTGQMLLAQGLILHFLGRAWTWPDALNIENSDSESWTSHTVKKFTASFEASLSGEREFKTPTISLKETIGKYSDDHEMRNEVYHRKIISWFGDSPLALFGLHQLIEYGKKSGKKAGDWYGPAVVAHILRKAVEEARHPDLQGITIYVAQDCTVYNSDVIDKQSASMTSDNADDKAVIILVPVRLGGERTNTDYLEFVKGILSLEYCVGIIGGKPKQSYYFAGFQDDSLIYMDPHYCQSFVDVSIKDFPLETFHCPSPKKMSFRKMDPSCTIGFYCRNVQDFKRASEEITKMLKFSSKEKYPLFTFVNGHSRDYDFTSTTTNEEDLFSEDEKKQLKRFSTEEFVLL

Assays:
Test in all cases: log2 fold change, soluble protein after heating vs DMSO (PISA); higher = thermal stabilisation; K562 lysate, 10 uM; active = over 0.2 and 3.5 SD of the protein, either way, in both replicates (recomputed)
vemurafenib = compound: CCCS(=O)(=O)Nc1ccc(F)c(C(=O)c2c[nH]c3ncc(-c4ccc(Cl)cc4)cc23)c1F [vemurafenib]
How it was run: (§1)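 A 30 min treatment with 10 μM compound was applied to crude K562 extract at 1 mg/mL protein in PBS pH 7.4 with 1 mM MgCl2. Heating for 3 min spanned 48°C-58°C, after which aliquots were pooled, adjusted to 0.5% NP-40 at 4°C and spun at 21,000xg for 90 min. TMTpro 16plex LC-MS/MS of the supernatant, with channel sums equalised, gave values recorded as log-two fold change in thermal stability against solvent controls, from duplicates.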

[1] = compound: CCCS(=O)(=O)Nc1ccc(F)c(C(=O)c2c[nH]c3ncc(Cl)cc23)c1F
How it was run: as §1

barasertib = compound: CCN(CCCOc1ccc2c(Nc3cc(CC(=O)Nc4cccc(F)c4)[nH]n3)ncnc2c1)CCOP(=O)(O)O [barasertib]
How it was run: as §1

[2] = compound: CC[C@@H]1C(=O)N(C)c2cnc(Nc3ccc(C(=O)NC4CCN(C)CC4)cc3OC)nc2N1C1CCCC1
How it was run: as §1

volasertib = compound: CC[C@@H]1C(=O)N(C)c2cnc(Nc3ccc(C(=O)N[C@H]4CC[C@H](N5CCN(CC6CC6)CC5)CC4)cc3OC)nc2N1C(C)C [volasertib]
How it was run: as §1

[3] = compound: CCn1c(C(=O)N(C2CC2)C2CC2)cc2c3c(ncn3C)c(Nc3cc(C)n(C)n3)nc21
How it was run: as §1

[4] = compound: CCn1cc(-c2ccnc3[nH]c(-c4cccc(CN(C)C)c4)cc23)c(-c2ccc(NC(=O)N(C)C)cc2)n1
How it was run: as §1

[5] = compound: CN1CCC(CNc2ccc3ncc(-c4cccc(OC(F)(F)F)c4)n3n2)CC1
How it was run: as §1

saracatinib = compound: CN1CCN(CCOc2cc(OC3CCOCC3)c3c(Nc4c(Cl)ccc5c4OCO5)ncnc3c2)CC1 [saracatinib]
How it was run: as §1

sotrastaurin = compound: CN1CCN(c2nc(C3=C(c4c[nH]c5ccccc45)C(=O)NC3=O)c3ccccc3n2)CC1 [sotrastaurin]
How it was run: as §1

alvocidib = compound: CN1CC[C@H](c2c(O)cc(O)c3c(=O)cc(-c4ccccc4Cl)oc23)[C@H](O)C1 [alvocidib]
How it was run: as §1

Tubastatin A = compound: CN1CCc2c(c3ccccc3n2Cc2ccc(C(=O)NO)cc2)C1 [Tubastatin A]
How it was run: as §1

[6] = compound: CNC(=O)C1=CC=CC=C1NC2=NC(=NC=C2Cl)NC3=C(C=C(C=C3)N4CCOCC4)OC
How it was run: as §1

defactinib = compound: CNC(=O)c1ccc(Nc2ncc(C(F)(F)F)c(NCc3nccnc3N(C)S(C)(=O)=O)n2)cc1 [defactinib]
How it was run: as §1

[7] = compound: CNc1nc(-c2ccc3c(N)n[nH]c3c2)cc(N2C[C@@H](C(=O)NC3CCCCC3)CC[C@H]2C)n1
How it was run: as §1

encorafenib = compound: COC(=O)N[C@@H](C)CNc1nccc(-c2cn(C(C)C)nc2-c2cc(Cl)cc(NS(C)(=O)=O)c2F)n1 [encorafenib]
How it was run: as §1

[8] = compound: COC(=O)[C@H](CCSC)NC(=O)C1=C(C=C(C=C1)NC[C@H](CS)N)C2=CC=CC=C2
How it was run: as §1

alisertib = compound: COc1cc(Nc2ncc3c(n2)-c2ccc(Cl)cc2C(c2c(F)cccc2OC)=NC3)ccc1C(=O)O [alisertib]
How it was run: as §1

[9] = compound: COc1cc2nc(-c3cc(F)ccc3O)nc(N[C@@H]3CNC[C@H]3C(C)(C)O)c2cc1OC
How it was run: as §1

gefitinib = compound: COc1cc2ncnc(Nc3ccc(F)c(Cl)c3)c2cc1OCCCN1CCOCC1 [gefitinib]
How it was run: as §1

Row | Target | log2 fold change (vemurafenib) | log2 fold change [1] | log2 fold change (barasertib) | log2 fold change [2] | log2 fold change (volasertib) | log2 fold change [3] | log2 fold change [4] | log2 fold change [5] | log2 fold change (saracatinib) | log2 fold change (sotrastaurin) | log2 fold change (alvocidib) | log2 fold change (Tubastatin A) | log2 fold change [6] | log2 fold change (defactinib) | log2 fold change [7] | log2 fold change (encorafenib) | log2 fold change [8] | log2 fold change (alisertib) | log2 fold change [9] | log2 fold change (gefitinib)
1 | ATP6V1D (UniProt Q9Y5K8) | inactive: -0.026 | inactive: 0.009 | inactive: 0.027 | inactive: 0.012 | inactive: 0.028 | inactive: -0.016 | inactive: 0.092 | inactive: -0.02 | inactive: 0.004 | inactive: 0 | inactive: 0.017 | inactive: -0.011 | inactive: 0.02 | inactive: 0.014 | inactive: 0.003 | inactive: -0.005 | inactive: -0.016 | inactive: -0.01 | inactive: 0.002 | inactive: 0.022
2 | ASL (UniProt P04424) | inactive: 0.001 | inactive: -0.013 | inactive: 0.033 | inactive: 0.002 | inactive: 0.016 | inactive: -0.009 | inactive: 0.009 | inactive: 0.027 | inactive: -0.015 | inactive: 0.016 | inactive: -0.021 | inactive: 0.043 | inactive: 0.009 | inactive: -0.024 | inactive: 0.033 | inactive: -0.015 | inactive: -0.026 | inactive: 0.002 | inactive: 0.004 | inactive: 0
3 | ATL2 (UniProt Q8NHH9) | inactive: -0.022 | inactive: 0.021 | inactive: -0.014 | inactive: -0.098 | inactive: -0.047 | inactive: 0.008 | inactive: -0.228 | inactive: 0.031 | inactive: 0.028 | inactive: -0.007 | inactive: -0.063 | inactive: 0.099 | inactive: 0.04 | inactive: 0.036 | inactive: -0.065 | inactive: 0.043 | inactive: 0.034 | inactive: 0.032 | inactive: 0.146 | inactive: 0.057
4 | ASF1A (UniProt Q9Y294) | inactive: -0.06 | inactive: -0.003 | inactive: -0.064 | inactive: -0.013 | inactive: -0.02 | inactive: 0.05 | inactive: 0.016 | inactive: 0.06 | inactive: 0.011 | inactive: -0.006 | inactive: -0.035 | inactive: -0.016 | inactive: 0.012 | inactive: -0.022 | inactive: -0.043 | inactive: 0.021 | inactive: -0.026 | inactive: -0.025 | inactive: 0.027 | inactive: 0.032
5 | ATP1A1 (UniProt P05023) | inactive: -0.021 | inactive: -0.006 | inactive: -0.034 | inactive: 0.031 | inactive: 0.025 | inactive: -0.015 | inactive: 0.057 | inactive: 0 | inactive: -0.021 | inactive: -0.038 | inactive: 0.025 | inactive: 0.038 | inactive: -0.002 | inactive: -0.006 | inactive: -0.005 | inactive: 0.001 | inactive: -0.019 | inactive: -0.012 | inactive: 0.004 | inactive: -0.004
6 | ATG9A (UniProt Q7Z3C6) | inactive: 0.053 | inactive: 0.022 | inactive: 0.018 | inactive: 0.029 | inactive: -0.037 | inactive: 0.001 | inactive: -0.076 | inactive: -0.01 | inactive: 0 | inactive: 0.046 | inactive: -0.02 | inactive: -0.028 | inactive: -0.027 | inactive: -0.017 | inactive: 0.013 | inactive: 0.005 | inactive: 0.086 | inactive: -0.018 | inactive: 0.009 | inactive: 0.04
7 | ATP13A1 (UniProt Q9HD20) | inactive: -0.006 | inactive: 0.013 | inactive: -0.006 | inactive: 0.023 | inactive: -0.036 | inactive: 0.067 | inactive: 0.004 | active: -0.343 | inactive: 0.012 | inactive: -0.012 | inactive: 0.051 | inactive: 0.036 | inactive: -0.012 | inactive: 0.028 | inactive: -0.002 | inactive: -0.008 | inactive: -0.067 | inactive: 0.055 | inactive: 0.03 | inactive: 0.011
8 | ATP6V1G1 (UniProt O75348) | inactive: -0.008 | inactive: 0.008 | inactive: -0.016 | inactive: 0.025 | inactive: 0.02 | inactive: -0.005 | inactive: -0.024 | inactive: -0.001 | inactive: -0.022 | inactive: -0.04 | inactive: 0.008 | inactive: 0.052 | inactive: 0.011 | inactive: -0.005 | inactive: 0.038 | inactive: -0.03 | inactive: 0.006 | inactive: 0.017 | inactive: 0.013 | inactive: 0.065
9 | ATP5PD (UniProt O75947) | inactive: 0.006 | inactive: -0.005 | inactive: 0.147 | inactive: 0.017 | inactive: 0.039 | inactive: 0 | inactive: -0.014 | inactive: 0.001 | inactive: -0.034 | inactive: -0.051 | inactive: 0.019 | inactive: 0.067 | inactive: -0.024 | inactive: 0.004 | inactive: 0.057 | inactive: -0.033 | inactive: -0.014 | inactive: 0.017 | inactive: 0.005 | inactive: -0.041
10 | ATG12 (UniProt O94817) | inactive: -0.03 | inactive: 0.04 | inactive: 0.027 | inactive: 0.054 | inactive: -0.052 | inactive: 0.007 | inactive: -0.072 | inactive: 0.117 | inactive: 0.04 | inactive: 0.005 | inactive: -0.043 | inactive: -0.002 | inactive: 0.074 | inactive: -0.037 | inactive: 0.02 | inactive: 0.065 | inactive: -0.096 | inactive: 0.021 | inactive: 0.002 | inactive: 0.009
11 | ASCC3 (UniProt Q8N3C0) | inactive: 0.103 | inactive: 0.018 | inactive: 0.052 | inactive: -0.007 | inactive: -0.024 | inactive: 0.01 | inactive: -0.098 | inactive: -0.003 | inactive: 0.005 | inactive: 0.028 | inactive: -0.023 | inactive: -0.064 | inactive: 0.037 | inactive: -0.026 | inactive: 0.07 | inactive: 0.02 | inactive: 0.126 | inactive: -0.004 | inactive: 0.029 | inactive: -0.016
12 | AXIN1 (UniProt O15169) | inactive: -0.158 | inactive: 0.091 | inactive: 0.1 | inactive: 0.043 | inactive: -0.057 | inactive: 0.042 | inactive: -0.107 | inactive: 0.085 | inactive: -0.078 | inactive: -0.11 | inactive: -0.095 | inactive: -0.038 | inactive: 0.056 | inactive: -0.148 | inactive: -0.337 | inactive: 0.015 | inactive: 0.053 | inactive: 0.03 | inactive: -0.056 | inactive: 0
13 | ATAD3B (UniProt Q5T9A4) | inactive: -0.022 | inactive: 0.016 | inactive: -0.007 | inactive: -0.004 | inactive: -0.019 | inactive: 0.014 | active: 0.383 | inactive: -0.205 | inactive: -0.018 | inactive: -0.013 | inactive: 0.124 | inactive: 0.047 | inactive: -0.029 | inactive: 0.046 | inactive: 0.039 | inactive: 0.016 | inactive: -0.128 | inactive: 0.006 | inactive: -0.008 | inactive: -0.001
14 | B3GLCT (UniProt Q6Y288) | inactive: 0.11 | inactive: 0.008 | inactive: -0.023 | inactive: 0.036 | inactive: -0.035 | inactive: -0.038 | inactive: -0.066 | inactive: 0.001 | inactive: 0.035 | inactive: 0.031 | inactive: -0.042 | inactive: 0.119 | inactive: -0.007 | inactive: 0.033 | inactive: 0.026 | inactive: 0 | inactive: 0.074 | inactive: -0.007 | inactive: 0.016 | inactive: 0.012
15 | ATP5F1B (UniProt P06576) | inactive: 0.013 | inactive: 0.005 | inactive: -0.009 | inactive: 0.018 | inactive: 0.023 | inactive: -0.027 | inactive: -0.022 | inactive: 0.036 | inactive: 0.001 | inactive: -0.001 | inactive: 0.01 | inactive: 0.052 | inactive: 0.001 | inactive: 0.002 | inactive: 0.027 | inactive: 0.012 | inactive: -0.049 | inactive: 0.008 | inactive: 0.013 | inactive: 0.013
16 | ATG4C (UniProt Q96DT6) | inactive: -0.07 | inactive: 0.022 | inactive: -0.012 | inactive: -0.022 | inactive: -0.079 | inactive: 0.086 | inactive: 0.108 | inactive: 0.004 | inactive: -0.042 | inactive: 0.026 | inactive: -0.04 | inactive: -0.019 | inactive: -0.005 | inactive: 0.021 | inactive: -0.043 | inactive: 0.005 | inactive: 0.158 | inactive: -0.072 | inactive: 0.005 | inactive: 0.023

Two records picked at random from the list so far, as already listed:
Row | Target | log2 fold change (vemurafenib) | log2 fold change [1] | log2 fold change (barasertib) | log2 fold change [2] | log2 fold change (volasertib) | log2 fold change [3] | log2 fold change [4] | log2 fold change [5] | log2 fold change (saracatinib) | log2 fold change (sotrastaurin) | log2 fold change (alvocidib) | log2 fold change (Tubastatin A) | log2 fold change [6] | log2 fold change (defactinib) | log2 fold change [7] | log2 fold change (encorafenib) | log2 fold change [8] | log2 fold change (alisertib) | log2 fold change [9] | log2 fold change (gefitinib)
15 | ATP5F1B (UniProt P06576) | inactive: 0.013 | inactive: 0.005 | inactive: -0.009 | inactive: 0.018 | inactive: 0.023 | inactive: -0.027 | inactive: -0.022 | inactive: 0.036 | inactive: 0.001 | inactive: -0.001 | inactive: 0.01 | inactive: 0.052 | inactive: 0.001 | inactive: 0.002 | inactive: 0.027 | inactive: 0.012 | inactive: -0.049 | inactive: 0.008 | inactive: 0.013 | inactive: 0.013
10 | ATG12 (UniProt O94817) | inactive: -0.03 | inactive: 0.04 | inactive: 0.027 | inactive: 0.054 | inactive: -0.052 | inactive: 0.007 | inactive: -0.072 | inactive: 0.117 | inactive: 0.04 | inactive: 0.005 | inactive: -0.043 | inactive: -0.002 | inactive: 0.074 | inactive: -0.037 | inactive: 0.02 | inactive: 0.065 | inactive: -0.096 | inactive: 0.021 | inactive: 0.002 | inactive: 0.009
